# From doi:10.1101/2023.07.05.547753
# By UniProt entry, the sequences of proteins in these tests, tags left out.
# UniProt O22130: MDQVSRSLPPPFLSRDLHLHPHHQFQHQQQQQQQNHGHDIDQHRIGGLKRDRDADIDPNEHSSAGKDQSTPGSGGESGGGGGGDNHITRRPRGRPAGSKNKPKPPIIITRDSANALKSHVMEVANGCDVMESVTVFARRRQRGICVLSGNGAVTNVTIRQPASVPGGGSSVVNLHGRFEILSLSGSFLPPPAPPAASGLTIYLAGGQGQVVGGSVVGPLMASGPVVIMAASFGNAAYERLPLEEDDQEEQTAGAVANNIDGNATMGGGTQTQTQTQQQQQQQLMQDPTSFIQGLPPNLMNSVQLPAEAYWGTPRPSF
# UniProt Q9S7C9: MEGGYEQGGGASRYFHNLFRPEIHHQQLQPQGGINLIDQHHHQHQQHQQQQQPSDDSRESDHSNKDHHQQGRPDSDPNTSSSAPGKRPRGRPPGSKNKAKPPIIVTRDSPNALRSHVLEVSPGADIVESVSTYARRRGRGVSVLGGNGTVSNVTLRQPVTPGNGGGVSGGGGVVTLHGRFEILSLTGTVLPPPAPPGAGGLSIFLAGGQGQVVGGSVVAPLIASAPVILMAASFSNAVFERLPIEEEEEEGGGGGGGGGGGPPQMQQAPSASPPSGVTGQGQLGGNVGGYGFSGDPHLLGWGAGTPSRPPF
# UniProt Q9C9K7: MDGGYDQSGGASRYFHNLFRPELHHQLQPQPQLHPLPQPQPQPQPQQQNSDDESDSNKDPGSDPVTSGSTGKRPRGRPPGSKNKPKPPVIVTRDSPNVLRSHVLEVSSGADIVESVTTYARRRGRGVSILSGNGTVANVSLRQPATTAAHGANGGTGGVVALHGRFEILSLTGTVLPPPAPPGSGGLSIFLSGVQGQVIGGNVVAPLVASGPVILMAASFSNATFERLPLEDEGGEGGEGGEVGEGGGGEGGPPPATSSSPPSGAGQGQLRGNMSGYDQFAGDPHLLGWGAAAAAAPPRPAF
# These are yes or no findings as the source states them, for the method shown. Binding seen in cells or lysates may run through a third protein. A yes stands for co-enrichment or nearness to the bait. Other partners may have been found.
# B1: FRS12 (FAR1-RELATED SEQUENCE 12), endogenous (protein, UniProt Q3E7I5 1-788)
# chain: MESVDTELTSFNNMVAKSSYPVRILHHNNGISEDEEGGSGVEPYVGLEFDTAEEAREFYNAYAARTGFKVRTGQLYRSRTDGTVSSRRFVCSKEGFQLNSRTGCTAFIRVQRRDTGKWVLDQIQKEHNHELGGEGSVEETTPRPSRAPAPTKLGVTVNPHRPKMKVVDESDRETRSCPGGFKRFKGGGGEGEVSDDHHQTQQAKAVTGTEPYAGLEFGSANEACQFYQAYAEVVGFRVRIGQLFRSKVDGSITSRRFVCSREGFQHPSRMGCGAYMRIKRQDSGGWIVDRLNKDHNHDLEPGKKNDAGMKKIPDDGTGGLDSVDLIELNDFGNNHIKKTRENRIGKEWYPLLLDYFQSRQTEDMGFFYAVELDVNNGSCMSIFWADSRARFACSQFGDSVVFDTSYRKGSYSVPFATIIGFNHHRQPVLLGCAMVADESKEAFLWLFQTWLRAMSGRRPRSIVADQDLPIQQALVQVFPGAHHRYSAWQIREKERENLIPFPSEFKYEYEKCIYQTQTIVEFDSVWSALINKYGLRDDVWLREIYEQRENWVPAYLRASFFAGIPINGTIEPFFGASLDALTPLREFISRYEQALEQRREEERKEDFNSYNLQPFLQTKEPVEEQCRRLYTLTVFRIFQNELVQSYNYLCLKTYEEGAISRFLVRKCGNESEKHAVTFSASNLNSSCSCQMFEHEGLLCRHILKVFNLLDIRELPSRYILHRWTKNAEFGFVRDMESGVSAQDLKALMVWSLREAASKYIEFGTSSLEKYKLAYEIMREGGKKLCWQR
# Biological target: AHL22 N-terminal GS^rhino tag fusion (Arabidopsis thaliana) (UniProt O22130)
# Assay: affinity purification with mass spectrometry
row,binding,Molecule
1,binds,AHL27 (from UniProt Q9S7C9 1-311)
2,binds,AHL29 (from UniProt Q9C9K7 1-302)
3,binds,B1
